No constants are given. Whether binding was seen depends on the method and setting. Binding seen in cells or lysates may run through a third protein. Some results given as binding are weak or reduced against the parent protein; the word gives no strength.
Target: Ten-eleven translocation protein 1 (mouse (endogenous in SmoA1-MB tumor tissue)) (UniProt Q3URK3)
Experiment: co-IP; SmoA1-MB tumor tissue lysate (20 mM Tris pH 7.4, 150 mM NaCl, 0.5% Triton X-100, 1 mM EDTA, 10% glycerol); 1 mg supernatant incubated with anti-Tet1 (GeneTex) or control IgG overnight at 4 °C, Protein-G beads 4 h at 4 °C; immunoblot

The chains behind the UniProt entries cited, without tags or fusion partners.
UniProt Q3URK3: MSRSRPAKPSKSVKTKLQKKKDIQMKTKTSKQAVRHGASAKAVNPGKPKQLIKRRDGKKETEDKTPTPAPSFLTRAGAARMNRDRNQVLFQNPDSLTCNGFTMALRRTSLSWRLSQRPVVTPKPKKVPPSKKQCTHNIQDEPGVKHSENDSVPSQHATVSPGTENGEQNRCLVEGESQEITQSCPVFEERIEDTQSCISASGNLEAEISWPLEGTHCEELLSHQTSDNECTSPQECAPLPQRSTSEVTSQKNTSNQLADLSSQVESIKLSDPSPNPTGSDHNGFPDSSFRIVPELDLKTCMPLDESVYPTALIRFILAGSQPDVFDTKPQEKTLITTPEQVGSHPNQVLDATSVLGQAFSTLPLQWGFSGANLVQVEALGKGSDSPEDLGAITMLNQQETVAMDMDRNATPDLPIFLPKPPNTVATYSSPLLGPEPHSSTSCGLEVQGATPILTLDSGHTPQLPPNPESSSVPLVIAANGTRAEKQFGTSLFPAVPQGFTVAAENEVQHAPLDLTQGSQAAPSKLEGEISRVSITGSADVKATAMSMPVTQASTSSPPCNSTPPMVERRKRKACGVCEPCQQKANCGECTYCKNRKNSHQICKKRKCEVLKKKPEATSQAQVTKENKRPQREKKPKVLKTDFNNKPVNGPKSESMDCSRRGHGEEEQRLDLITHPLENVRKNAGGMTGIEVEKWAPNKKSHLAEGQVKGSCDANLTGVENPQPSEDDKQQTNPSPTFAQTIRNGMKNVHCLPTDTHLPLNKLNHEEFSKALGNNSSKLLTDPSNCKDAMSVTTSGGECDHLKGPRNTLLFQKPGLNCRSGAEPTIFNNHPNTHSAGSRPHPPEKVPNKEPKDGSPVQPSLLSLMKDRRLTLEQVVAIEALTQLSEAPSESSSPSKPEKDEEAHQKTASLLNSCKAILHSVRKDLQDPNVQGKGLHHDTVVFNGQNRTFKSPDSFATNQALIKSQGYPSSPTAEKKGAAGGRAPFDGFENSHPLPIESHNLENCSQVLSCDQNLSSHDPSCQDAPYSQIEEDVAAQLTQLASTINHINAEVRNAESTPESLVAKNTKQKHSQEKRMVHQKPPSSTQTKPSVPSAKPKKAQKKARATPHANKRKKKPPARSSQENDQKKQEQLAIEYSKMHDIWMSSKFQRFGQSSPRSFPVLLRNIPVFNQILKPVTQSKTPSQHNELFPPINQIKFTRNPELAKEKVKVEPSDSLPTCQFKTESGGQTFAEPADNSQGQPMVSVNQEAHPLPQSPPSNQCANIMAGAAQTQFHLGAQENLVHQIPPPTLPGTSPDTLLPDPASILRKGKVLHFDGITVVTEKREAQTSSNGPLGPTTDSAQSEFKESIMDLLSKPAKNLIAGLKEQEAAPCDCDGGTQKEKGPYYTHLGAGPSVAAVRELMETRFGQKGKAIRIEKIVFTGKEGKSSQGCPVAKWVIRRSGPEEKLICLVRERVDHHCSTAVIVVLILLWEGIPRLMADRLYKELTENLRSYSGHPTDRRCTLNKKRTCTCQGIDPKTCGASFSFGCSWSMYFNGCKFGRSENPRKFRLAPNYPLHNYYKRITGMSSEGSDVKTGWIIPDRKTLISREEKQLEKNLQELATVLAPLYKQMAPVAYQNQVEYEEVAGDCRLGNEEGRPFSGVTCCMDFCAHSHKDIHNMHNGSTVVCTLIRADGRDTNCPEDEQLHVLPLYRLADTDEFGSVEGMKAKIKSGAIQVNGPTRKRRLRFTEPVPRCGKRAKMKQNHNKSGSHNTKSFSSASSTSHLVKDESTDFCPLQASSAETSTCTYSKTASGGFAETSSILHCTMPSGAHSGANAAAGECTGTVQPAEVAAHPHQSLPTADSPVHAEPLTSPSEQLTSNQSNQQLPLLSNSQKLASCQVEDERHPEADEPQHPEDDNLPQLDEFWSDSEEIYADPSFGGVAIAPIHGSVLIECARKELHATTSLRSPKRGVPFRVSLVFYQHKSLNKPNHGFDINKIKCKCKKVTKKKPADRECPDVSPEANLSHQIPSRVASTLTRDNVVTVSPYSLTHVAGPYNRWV

binding: binds
B1: NANOG (protein, UniProt Q80Z64 1-305)
chain: MSVGLPGPHSLPSSEEASNSGNASSMPAVFHPENYSCLQGSATEMLCTEAASPRPSSEDLPLQGSPDSSTSPKQKLSSPEADKGPEEEENKVLARKQKMRTVFSQAQLCALKDRFQKQKYLSLQQMQELSSILNLSYKQVKTWFQNQRMKCKRWQKNQWLKTSNGLIQKGSAPVEYPSIHCSYPQGYLVNASGSLSMWGSQTWTNPTWSSQTWTNPTWNNQTWTNPTWSSQAWTAQSWNGQPWNAAPLHNFGEDFLQPYVQLQQNFSASDLEVNLEATRESHAHFSTPQALELFLNYSVTPPGEI
